These are yes or no findings as the source states them, for the method shown. Binding seen in cells or lysates may run through a third protein. These calls come from enrichment with a bait or labelling near it, and not all partners need be listed.

The target in this assay is T1, sideroflexin 3 (native, from membrane proteins of NLC of CLL patients) (human) (UniProt Q9BWM7).
T1 sequence (looked up): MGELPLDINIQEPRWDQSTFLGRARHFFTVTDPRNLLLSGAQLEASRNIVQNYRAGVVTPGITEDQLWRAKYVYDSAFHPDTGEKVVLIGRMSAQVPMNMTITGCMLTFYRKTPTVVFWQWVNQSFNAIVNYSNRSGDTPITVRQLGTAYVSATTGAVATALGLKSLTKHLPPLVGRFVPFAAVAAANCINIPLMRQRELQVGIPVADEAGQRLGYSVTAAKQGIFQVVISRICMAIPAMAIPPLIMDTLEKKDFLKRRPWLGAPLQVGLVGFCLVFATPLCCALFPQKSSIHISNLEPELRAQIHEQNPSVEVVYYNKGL
The experiment in a line: immunoprecipitation of NLC membrane proteins with hybridoma supernatant on beads, mass spectrometry.

B1: 6-25 antibody (antibody, V domains shown)
VH: QVQLKESGPGLVAPSQSLSITCTVSGFSLTGYGVNWVRQPPGKGLEWLGMIWGDGSTDYNSDLKSRLSITEDNSKRQVFLKMDSLQTEDTARYYCARDLKFAYWGQGTLVTVSA
VL: DIVMTQSHKFMSSSVGDRVSITCKASQHVTTAVAWFQQKPGQSPKLLIYSASFRYTGVPDRFTGSGSGTDFTFTISTVQAEDLAVYYCQQHYTTPWTFGGGTKLEIK
Take B1: the binding entry was “binds”.

Source of the values: patent US20210292408A1.
